Values from PubChem BioAssay AID1224830 (NIAID, 2016).

Assay: 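Regulators of TLR4 signalling towards TNF-alpha in macrophage-like cells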 (primary screen)
System: human THP-1 monocytic leukaemia cells, TNF dual-luciferase reporter clone, PMA-differentiated to macrophage-like cells
Reagents: siRNA pool against human genes, 50 nM
Time to read-out: LPS for 4 h, given about 3 days after siRNA transfection
Challenge: bacterial LPS (TLR4 ligand), 10 ng/ml
Detection: 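TNF firefly reporter luminescence divided by renilla, normalised to the plate median, then turned into a robust z-score for each replicate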
Reading the numbers: TNF reporter robust z-score: higher = stronger TNF reporter response to LPS
Hit rule: 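Each well counts as active if its z-score is over 2.8 or under -1.5; controls are left without a call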
Here is one part, drawn at random, of about 18,000 deposited reagents. About 2,900 of them (16%) were called active. 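Calls are made per well; low scores hint the gene aids the LPS response, high scores that it dampens it.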 Repeated entries: four replicate wells of each siRNA pool.

Target gene	TNF reporter robust z-score	call
CAPN6	-0.8	inactive
CAPN6	-0.22	inactive
CAPN6	-0.74	inactive
CAPN6	0.09	inactive
NTNG1	2.72	inactive
NTNG1	3.09	active
NTNG1	0.21	inactive
NTNG1	0.53	inactive
PIK3R2	-0.65	inactive
PIK3R2	0.65	inactive
PIK3R2	-1	inactive
PIK3R2	-1.12	inactive
CCL17	0.34	inactive
CCL17	0.15	inactive
CCL17	0.14	inactive
CCL17	2.27	inactive
LSAMP	0.61	inactive
LSAMP	0.4	inactive
LSAMP	0.84	inactive
LSAMP	0.57	inactive
TMEM184B	0.64	inactive
TMEM184B	0.38	inactive
TMEM184B	0.83	inactive
TMEM184B	0.39	inactive
SLX4IP	-1.01	inactive
SLX4IP	-1.02	inactive
SLX4IP	-0.58	inactive
SLX4IP	-0.52	inactive
LGR6	-0.75	inactive
LGR6	-0.06	inactive
LGR6	-0.58	inactive
LGR6	-0.5	inactive
ANTXR1	-0.29	inactive
ANTXR1	0.98	inactive
ANTXR1	0.48	inactive
ANTXR1	-0.45	inactive
MFSD11	0	inactive
MFSD11	0.32	inactive
MFSD11	-0.05	inactive
MFSD11	2.3	inactive
IFRD2	-0.75	inactive
IFRD2	-0.63	inactive
IFRD2	-0.11	inactive
IFRD2	-0.5	inactive
ERICH6	0.44	inactive
ERICH6	0.12	inactive
ERICH6	1.27	inactive
ERICH6	1.99	inactive
TEX44	0.52	inactive
TEX44	0.32	inactive
TEX44	0.39	inactive
TEX44	1.25	inactive
NDUFA8	-0.49	inactive
NDUFA8	-0.21	inactive
NDUFA8	-0.16	inactive
NDUFA8	-0.27	inactive
BCKDHB	3.12	active
BCKDHB	-0.15	inactive
BCKDHB	-0.95	inactive
BCKDHB	0.35	inactive
EDDM3B	0.03	inactive
EDDM3B	0.19	inactive
EDDM3B	-1.31	inactive
EDDM3B	-0.52	inactive
TMEM167B	-0.24	inactive
TMEM167B	-0.82	inactive
TMEM167B	-0.98	inactive
TMEM167B	-0.13	inactive
PAIP2	-0.28	inactive
PAIP2	-1.14	inactive
PAIP2	0.31	inactive
PAIP2	0.62	inactive
MBD3	-1.62	active
MBD3	-1.54	active
MBD3	-1.66	active
MBD3	-1.71	active
IL6ST	0.66	inactive
IL6ST	0.64	inactive
IL6ST	1.57	inactive
IL6ST	1.46	inactive
TCEA2	0.32	inactive
TCEA2	-0.24	inactive
TCEA2	-0.82	inactive
TCEA2	0.08	inactive
NXPH2	-0.9	inactive
NXPH2	-0.3	inactive
NXPH2	0.05	inactive
NXPH2	0.27	inactive
OR8D2	-1.06	inactive
OR8D2	-1.04	inactive
OR8D2	-1.21	inactive
OR8D2	-1.39	inactive
KMT2B	-0.11	inactive
KMT2B	-0.23	inactive
KMT2B	-0.42	inactive
KMT2B	-0.85	inactive
OR7G3	-0.31	inactive
OR7G3	1.34	inactive
OR7G3	-0.32	inactive
OR7G3	1.03	inactive
CLGN	-0.33	inactive
CLGN	-1.19	inactive
CLGN	1.19	inactive
CLGN	0.98	inactive
ZNF286A	-1.32	inactive
ZNF286A	-1.22	inactive
ZNF286A	-1.48	inactive
ZNF286A	-0.82	inactive
CYP2E1	0.36	inactive
CYP2E1	0.72	inactive
CYP2E1	0.16	inactive
CYP2E1	0.24	inactive
